Data as given in PubChem BioAssay AID743121 (NCATS, 2013).
Screen: 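Knock-downs that sensitise breast cancer cells to camptothecin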 (primary screen). System: MDA-MB-231 cells, a human breast cancer line. Reagent: single siRNA against human genes, 20 nM siRNA (0.8 pmol per well). Duration: 120 h (drug added 48 h after transfection, read 72 h later). Conditions: camptothecin 20 nM (about EC30) for 72 h; vehicle 0.1% DMSO in parallel plates. Measurement: 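Cell viability by ATP luminescence (CellTiter-Glo) as % of non-targeting siRNA wells, and the log2 ratio of viability without drug over viability with camptothecin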. Reading the numbers: log2 vehicle/camptothecin viability: higher = stronger sensitisation to camptothecin. Rule for the call: 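Active genes have an RSA gene-level p-value below 0.001, computed from the ratios of their separate siRNAs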.
In all, the deposit lists about 26,000 reagents; shown is an unselected part. 167 of all reagents (0.63%) were called active. 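Calls are per gene from RSA p-values that are not deposited; an individual active-marked siRNA can sensitise only weakly.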 Unmarked entries are inactive. The numbers tell different reagents against one gene apart. Not all columns of the deposit are shown. Reagent sequences are not shown.

CRELD2 #1 gave log2 vehicle/camptothecin viability -0.0647. With knock-down of CRELD2 #2, the screen gave log2 vehicle/camptothecin viability -0.343. CRELD2 #3 gave log2 vehicle/camptothecin viability 0.0379. Knock-down of CRELD2 #4 gave: log2 vehicle/camptothecin viability 0.12. After knock-down of FMO4 #1, the record shows log2 vehicle/camptothecin viability -0.452. Knock-down of FMO4 #2 came out at: log2 vehicle/camptothecin viability -0.264.

Against FMO4 #3, the values are log2 vehicle/camptothecin viability -0.344. After knock-down of FMO4 #4, the screen gave log2 vehicle/camptothecin viability -0.349. PPP1R15A #1 gave log2 vehicle/camptothecin viability -0.261. Knock-down of PPP1R15A #2 gave: log2 vehicle/camptothecin viability -0.278. After knock-down of PPP1R15A #3, the record shows log2 vehicle/camptothecin viability -0.363. Depletion of PPP1R15A #4 resulted in: log2 vehicle/camptothecin viability -0.247.

With knock-down of SCG3 #1, the record shows log2 vehicle/camptothecin viability -0.226. For SCG3 #2 the deposit lists log2 vehicle/camptothecin viability -0.0663. Against SCG3 #3, the entry reads log2 vehicle/camptothecin viability -0.474. Silencing of SCG3 #4 came out at: log2 vehicle/camptothecin viability 0.409. ANGPTL2 #1 scored log2 vehicle/camptothecin viability 0.00443. For ANGPTL2 #2, the entry reads log2 vehicle/camptothecin viability 0.134.

ANGPTL2 #3 showed log2 vehicle/camptothecin viability 0.15. Against NEK1 #1, the entry reads log2 vehicle/camptothecin viability 0.00701. After knock-down of NEK1 #2 the results were log2 vehicle/camptothecin viability -0.175. With knock-down of NEK1 #3, the screen gave log2 vehicle/camptothecin viability -0.335. With knock-down of NEK1 #4, the record shows log2 vehicle/camptothecin viability -0.129. RASEF #1 showed log2 vehicle/camptothecin viability 0.131.

Depletion of RASEF #2 resulted in: log2 vehicle/camptothecin viability -0.0894. Against RASEF #3, the entry reads log2 vehicle/camptothecin viability 0.225. Against RASEF #4, the values are log2 vehicle/camptothecin viability 0.0008. Silencing of LIN9 #1 resulted in: log2 vehicle/camptothecin viability 0.102. Silencing of LIN9 #2 came out at: log2 vehicle/camptothecin viability -0.609. For LIN9 #3 the deposit lists log2 vehicle/camptothecin viability -0.405.

With knock-down of LIN9 #4, the screen gave log2 vehicle/camptothecin viability -0.115. After knock-down of GABRB2 #1, the record shows log2 vehicle/camptothecin viability -0.296. After knock-down of GABRB2 #2 the results were log2 vehicle/camptothecin viability -0.416. After knock-down of GABRB2 #3 the results were log2 vehicle/camptothecin viability -0.444. GABRB2 #4 showed log2 vehicle/camptothecin viability -0.0657.
